Consider 34 targets from the supplement of paper PMC10849652.

Chains of the proteins cited; added tags and fusions are not shown. Lines headed by an entry give the natural chain unless they say otherwise; changes in a name come on top.
UniProt Q14152, whole entry, looked up: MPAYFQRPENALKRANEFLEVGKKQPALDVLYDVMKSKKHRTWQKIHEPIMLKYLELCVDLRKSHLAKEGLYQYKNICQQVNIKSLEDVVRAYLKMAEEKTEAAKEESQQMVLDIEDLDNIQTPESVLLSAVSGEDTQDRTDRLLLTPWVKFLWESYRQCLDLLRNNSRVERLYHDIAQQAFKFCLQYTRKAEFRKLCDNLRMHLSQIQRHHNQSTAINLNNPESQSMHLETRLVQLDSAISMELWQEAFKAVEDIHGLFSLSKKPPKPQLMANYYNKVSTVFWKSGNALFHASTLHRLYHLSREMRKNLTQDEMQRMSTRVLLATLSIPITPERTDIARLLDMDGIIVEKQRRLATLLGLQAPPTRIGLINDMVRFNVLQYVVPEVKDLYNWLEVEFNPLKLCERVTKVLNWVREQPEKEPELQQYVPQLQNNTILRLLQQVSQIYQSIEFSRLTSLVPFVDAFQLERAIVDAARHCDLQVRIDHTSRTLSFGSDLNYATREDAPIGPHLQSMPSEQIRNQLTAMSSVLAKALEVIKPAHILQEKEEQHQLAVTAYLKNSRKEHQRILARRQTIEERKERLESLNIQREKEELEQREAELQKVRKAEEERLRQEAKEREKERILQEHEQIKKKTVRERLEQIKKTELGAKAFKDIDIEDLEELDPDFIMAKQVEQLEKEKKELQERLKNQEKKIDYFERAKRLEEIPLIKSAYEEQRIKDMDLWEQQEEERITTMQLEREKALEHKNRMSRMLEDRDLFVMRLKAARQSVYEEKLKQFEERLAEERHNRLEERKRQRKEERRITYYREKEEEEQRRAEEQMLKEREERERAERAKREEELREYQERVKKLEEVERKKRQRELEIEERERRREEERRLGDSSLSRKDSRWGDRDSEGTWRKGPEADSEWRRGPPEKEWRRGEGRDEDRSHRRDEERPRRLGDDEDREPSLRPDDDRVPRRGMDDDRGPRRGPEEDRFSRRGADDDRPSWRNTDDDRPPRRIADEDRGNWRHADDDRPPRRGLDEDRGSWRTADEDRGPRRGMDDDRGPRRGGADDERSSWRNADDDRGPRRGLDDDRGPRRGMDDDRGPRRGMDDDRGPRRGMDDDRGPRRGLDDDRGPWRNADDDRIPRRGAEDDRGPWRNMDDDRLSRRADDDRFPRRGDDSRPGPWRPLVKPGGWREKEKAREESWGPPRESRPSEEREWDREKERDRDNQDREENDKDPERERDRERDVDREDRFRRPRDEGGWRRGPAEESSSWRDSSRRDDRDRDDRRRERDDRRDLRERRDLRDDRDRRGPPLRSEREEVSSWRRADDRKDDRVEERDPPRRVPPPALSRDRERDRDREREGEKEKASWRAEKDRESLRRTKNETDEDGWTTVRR
UniProt Q9NR50: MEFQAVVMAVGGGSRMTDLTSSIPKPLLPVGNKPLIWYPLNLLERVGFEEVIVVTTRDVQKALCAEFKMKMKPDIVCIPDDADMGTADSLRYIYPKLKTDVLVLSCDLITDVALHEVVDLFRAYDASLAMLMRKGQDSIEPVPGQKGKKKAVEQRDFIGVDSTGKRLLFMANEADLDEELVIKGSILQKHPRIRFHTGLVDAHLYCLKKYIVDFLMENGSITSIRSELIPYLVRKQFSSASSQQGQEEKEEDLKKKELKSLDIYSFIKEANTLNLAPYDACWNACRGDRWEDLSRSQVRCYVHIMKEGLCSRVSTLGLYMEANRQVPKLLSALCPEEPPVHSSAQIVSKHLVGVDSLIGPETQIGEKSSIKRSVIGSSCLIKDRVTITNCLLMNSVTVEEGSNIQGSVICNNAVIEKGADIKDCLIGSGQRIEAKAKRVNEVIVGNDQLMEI
UniProt P23588, whole entry, looked up: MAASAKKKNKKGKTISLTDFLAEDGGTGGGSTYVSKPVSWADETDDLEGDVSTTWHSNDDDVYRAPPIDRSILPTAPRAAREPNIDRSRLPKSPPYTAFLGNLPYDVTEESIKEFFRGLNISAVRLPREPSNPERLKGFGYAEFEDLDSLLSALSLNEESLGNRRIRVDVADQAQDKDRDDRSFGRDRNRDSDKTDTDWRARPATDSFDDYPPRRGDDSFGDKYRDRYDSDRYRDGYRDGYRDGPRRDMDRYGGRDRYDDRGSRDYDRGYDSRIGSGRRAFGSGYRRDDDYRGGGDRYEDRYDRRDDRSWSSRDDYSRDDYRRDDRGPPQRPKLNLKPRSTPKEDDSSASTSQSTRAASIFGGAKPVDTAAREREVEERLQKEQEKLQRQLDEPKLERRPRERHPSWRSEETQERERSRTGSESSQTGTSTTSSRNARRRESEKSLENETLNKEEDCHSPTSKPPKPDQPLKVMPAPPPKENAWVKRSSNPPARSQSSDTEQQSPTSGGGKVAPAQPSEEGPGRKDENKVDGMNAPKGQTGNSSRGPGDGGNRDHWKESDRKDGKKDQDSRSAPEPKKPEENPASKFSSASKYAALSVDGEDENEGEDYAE
UniProt O15372, whole entry, looked up: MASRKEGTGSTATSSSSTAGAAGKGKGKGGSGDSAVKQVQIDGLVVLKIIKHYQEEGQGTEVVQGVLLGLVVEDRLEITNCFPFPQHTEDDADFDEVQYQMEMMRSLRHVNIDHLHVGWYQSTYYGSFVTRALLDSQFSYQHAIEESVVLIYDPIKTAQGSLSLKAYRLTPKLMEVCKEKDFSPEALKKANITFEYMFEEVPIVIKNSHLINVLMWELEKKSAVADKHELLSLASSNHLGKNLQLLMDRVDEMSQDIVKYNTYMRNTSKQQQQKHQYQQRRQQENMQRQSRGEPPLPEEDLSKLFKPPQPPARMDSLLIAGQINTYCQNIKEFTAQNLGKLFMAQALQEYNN
UniProt Q96EB1: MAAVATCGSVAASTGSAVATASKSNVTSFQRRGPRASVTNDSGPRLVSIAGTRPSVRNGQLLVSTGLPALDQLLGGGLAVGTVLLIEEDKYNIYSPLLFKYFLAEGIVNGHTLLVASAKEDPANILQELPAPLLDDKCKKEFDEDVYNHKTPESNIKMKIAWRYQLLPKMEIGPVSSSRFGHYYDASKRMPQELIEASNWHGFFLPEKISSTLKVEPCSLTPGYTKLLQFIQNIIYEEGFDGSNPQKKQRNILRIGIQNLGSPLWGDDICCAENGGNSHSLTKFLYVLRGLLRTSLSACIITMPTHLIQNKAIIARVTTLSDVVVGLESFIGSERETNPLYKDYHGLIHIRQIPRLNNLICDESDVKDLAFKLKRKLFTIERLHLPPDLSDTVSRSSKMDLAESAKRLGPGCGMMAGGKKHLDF
UniProt Q8IZ81: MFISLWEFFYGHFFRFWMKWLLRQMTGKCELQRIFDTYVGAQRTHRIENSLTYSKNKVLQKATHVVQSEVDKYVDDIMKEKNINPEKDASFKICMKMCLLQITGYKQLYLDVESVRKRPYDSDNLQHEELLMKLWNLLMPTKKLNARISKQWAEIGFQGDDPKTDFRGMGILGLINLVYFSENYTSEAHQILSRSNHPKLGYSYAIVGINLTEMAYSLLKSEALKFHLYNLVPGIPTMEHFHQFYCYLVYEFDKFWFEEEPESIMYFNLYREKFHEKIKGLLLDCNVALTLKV
UniProt P41567, whole entry, looked up: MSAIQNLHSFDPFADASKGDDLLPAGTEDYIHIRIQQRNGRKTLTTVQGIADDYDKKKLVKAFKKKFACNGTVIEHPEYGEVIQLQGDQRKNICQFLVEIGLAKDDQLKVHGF
UniProt O15371, whole entry, looked up: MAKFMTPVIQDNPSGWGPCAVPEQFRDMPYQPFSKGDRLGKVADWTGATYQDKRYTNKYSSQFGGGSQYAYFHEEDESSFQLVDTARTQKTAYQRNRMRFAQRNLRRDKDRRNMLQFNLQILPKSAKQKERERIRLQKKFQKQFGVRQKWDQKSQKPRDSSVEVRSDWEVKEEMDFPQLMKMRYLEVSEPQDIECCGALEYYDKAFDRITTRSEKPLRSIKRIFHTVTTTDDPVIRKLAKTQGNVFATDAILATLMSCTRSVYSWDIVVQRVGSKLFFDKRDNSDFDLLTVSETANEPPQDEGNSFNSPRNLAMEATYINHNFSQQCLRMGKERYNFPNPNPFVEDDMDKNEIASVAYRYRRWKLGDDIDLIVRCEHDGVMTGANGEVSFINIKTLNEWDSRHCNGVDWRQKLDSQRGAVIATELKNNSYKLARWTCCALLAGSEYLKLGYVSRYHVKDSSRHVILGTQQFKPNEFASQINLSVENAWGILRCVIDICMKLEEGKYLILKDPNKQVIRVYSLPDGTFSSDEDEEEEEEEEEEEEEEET
UniProt P09104, whole entry, looked up: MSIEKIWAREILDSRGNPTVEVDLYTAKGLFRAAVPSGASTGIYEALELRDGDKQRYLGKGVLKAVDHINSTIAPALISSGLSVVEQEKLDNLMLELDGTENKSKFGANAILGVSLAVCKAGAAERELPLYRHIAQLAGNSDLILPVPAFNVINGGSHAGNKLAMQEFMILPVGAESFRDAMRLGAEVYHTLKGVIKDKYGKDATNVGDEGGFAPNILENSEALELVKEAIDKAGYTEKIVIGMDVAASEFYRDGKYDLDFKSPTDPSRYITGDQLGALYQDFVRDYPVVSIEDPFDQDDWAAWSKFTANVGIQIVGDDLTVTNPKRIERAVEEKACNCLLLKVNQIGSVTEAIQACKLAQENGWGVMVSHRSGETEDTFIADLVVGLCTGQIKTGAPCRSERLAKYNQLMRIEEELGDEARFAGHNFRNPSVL
UniProt P60228, whole entry, looked up: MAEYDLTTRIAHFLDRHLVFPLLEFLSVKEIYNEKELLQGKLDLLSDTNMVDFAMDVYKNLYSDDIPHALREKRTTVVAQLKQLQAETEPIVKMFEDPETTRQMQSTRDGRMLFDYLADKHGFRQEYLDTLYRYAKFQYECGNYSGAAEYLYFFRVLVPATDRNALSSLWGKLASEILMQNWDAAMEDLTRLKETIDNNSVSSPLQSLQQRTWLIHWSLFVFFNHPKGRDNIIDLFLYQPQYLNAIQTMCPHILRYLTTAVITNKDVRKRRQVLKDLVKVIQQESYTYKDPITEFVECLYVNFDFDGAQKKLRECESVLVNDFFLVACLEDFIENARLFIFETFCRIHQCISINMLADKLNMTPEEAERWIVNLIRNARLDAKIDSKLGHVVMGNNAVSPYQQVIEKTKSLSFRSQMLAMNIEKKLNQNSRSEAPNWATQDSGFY
UniProt Q08426: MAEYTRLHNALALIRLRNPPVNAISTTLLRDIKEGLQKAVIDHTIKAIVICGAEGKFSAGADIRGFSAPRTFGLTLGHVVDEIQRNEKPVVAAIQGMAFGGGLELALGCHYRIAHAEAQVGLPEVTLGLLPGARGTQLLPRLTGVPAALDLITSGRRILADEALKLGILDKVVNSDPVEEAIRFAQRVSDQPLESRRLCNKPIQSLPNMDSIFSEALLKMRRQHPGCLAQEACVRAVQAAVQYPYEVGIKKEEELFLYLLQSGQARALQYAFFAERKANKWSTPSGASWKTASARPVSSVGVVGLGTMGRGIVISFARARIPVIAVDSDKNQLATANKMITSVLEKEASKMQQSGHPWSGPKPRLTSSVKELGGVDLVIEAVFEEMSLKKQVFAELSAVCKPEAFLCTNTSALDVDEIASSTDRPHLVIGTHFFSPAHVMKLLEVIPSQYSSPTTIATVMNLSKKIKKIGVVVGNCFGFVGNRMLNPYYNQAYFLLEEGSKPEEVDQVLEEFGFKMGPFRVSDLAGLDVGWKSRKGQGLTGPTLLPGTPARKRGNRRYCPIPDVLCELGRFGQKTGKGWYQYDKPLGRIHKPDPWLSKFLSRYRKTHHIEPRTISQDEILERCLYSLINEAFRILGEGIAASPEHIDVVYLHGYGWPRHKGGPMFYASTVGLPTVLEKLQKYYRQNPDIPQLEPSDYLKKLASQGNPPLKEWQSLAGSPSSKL
UniProt P41214: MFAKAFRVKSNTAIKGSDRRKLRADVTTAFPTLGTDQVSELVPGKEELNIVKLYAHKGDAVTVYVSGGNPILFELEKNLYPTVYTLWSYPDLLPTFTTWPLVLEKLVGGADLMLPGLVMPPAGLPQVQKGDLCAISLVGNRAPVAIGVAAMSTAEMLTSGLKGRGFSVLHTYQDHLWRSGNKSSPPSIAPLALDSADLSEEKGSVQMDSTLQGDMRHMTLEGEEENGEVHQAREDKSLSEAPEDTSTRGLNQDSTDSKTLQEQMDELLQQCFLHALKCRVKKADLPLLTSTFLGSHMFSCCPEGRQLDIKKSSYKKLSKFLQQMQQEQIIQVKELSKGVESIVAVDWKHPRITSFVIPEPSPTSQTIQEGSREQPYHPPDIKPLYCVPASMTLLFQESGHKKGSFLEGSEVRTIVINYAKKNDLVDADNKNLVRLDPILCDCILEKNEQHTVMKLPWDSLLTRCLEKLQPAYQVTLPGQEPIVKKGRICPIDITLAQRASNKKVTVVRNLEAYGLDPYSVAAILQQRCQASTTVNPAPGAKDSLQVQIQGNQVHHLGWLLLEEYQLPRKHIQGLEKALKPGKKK
UniProt P54852: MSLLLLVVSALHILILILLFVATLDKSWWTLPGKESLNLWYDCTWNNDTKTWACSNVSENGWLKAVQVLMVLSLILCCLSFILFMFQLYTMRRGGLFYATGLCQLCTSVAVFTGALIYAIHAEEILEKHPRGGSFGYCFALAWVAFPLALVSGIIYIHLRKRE

The list shows a part of the results.

Compound in the first test: C1=CC=C(C=C1)C2=NC(=C(N2)C3=CC=NC=C3)C4=CC(=C(C=C4)Cl)O
Put plainly: log2 fold change, soluble protein after heating vs DMSO (PISA); higher = thermal stabilisation; K562 cells, 10 uM, 30 min; active = over 0.2 and 3.5 SD of the protein, either way, in both replicates (recomputed). The essentials:
(§1)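 Thermal stability values are relative to control samples and come from duplicates. They are expressed as log2 fold changes. For measurement, K562 cells (2×10^6 cells/mL) received 10 μM compound for 30 min, and aliquots were heated for 3 min over 48°C-58°C, pooled, and extracted at 4°C in PBS with 0.5% NP-40. Soluble protein, the supernatant after 21,000xg for 90 min, was quantified by TMTpro 16plex LC-MS/MS with equalised channel sums.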
EMC7 (UniProt Q9NPA0): the log2 fold change is inactive: -0.013.

On to EIF2S1 (UniProt P05198), for which the log2 fold change is inactive: -0.052.

Take EIF3A (UniProt Q14152): the log2 fold change was inactive: 0.028.

With EIF2B3 (UniProt Q9NR50), the log2 fold change was inactive: 0.042.

For ENO3 (UniProt P13929), the log2 fold change is inactive: 0.051.

For the target EIF3L (UniProt Q9Y262), the log2 fold change is inactive: 0.009.

As for EPB41 (UniProt P11171), the log2 fold change is inactive: -0.036.

With EIF2B2 (UniProt P49770), the log2 fold change was inactive: 0.032.

For the target ENSA isoform 3 (UniProt O43768), the log2 fold change was inactive: -0.035.

On to ELP2 isoform 6 (UniProt Q6IA86), for which the log2 fold change is inactive: 0.003.

Regarding EIF1AX (UniProt P47813), the log2 fold change was inactive: 0.085.

For EMC6 (UniProt Q9BV81), the log2 fold change was inactive: -0.072.

As for EIF4B (UniProt P23588), the log2 fold change was inactive: 0.007.

Regarding EIF3H (UniProt O15372), the log2 fold change was inactive: 0.006.

For the target EEFSEC (UniProt P57772), the log2 fold change was inactive: 0.048.

Regarding ELP4 (UniProt Q96EB1), the log2 fold change was inactive: -0.03.

Regarding ELMOD2 (UniProt Q8IZ81), the log2 fold change is inactive: -0.045.

On to EML3 isoform 2 (UniProt Q32P44), for which the log2 fold change is inactive: 0.061.

Regarding ELOB (UniProt Q15370), the log2 fold change is inactive: 0.014.

On to EEF2 (UniProt P13639), for which the log2 fold change is inactive: 0.025.

As to EI24 (UniProt O14681), the log2 fold change was inactive: 0.171.

Turning to EHMT2 (UniProt Q96KQ7), the log2 fold change is inactive: 0.155.

In the case of EIF1 (UniProt P41567), the log2 fold change was inactive: -0.03.

Turning to EIF3D (UniProt O15371), the log2 fold change was inactive: -0.023.

Regarding ENDOG (UniProt Q14249), the log2 fold change is inactive: 0.016.

As for EIF3G (UniProt O75821), the log2 fold change is inactive: -0.001.

Consider ELP6 (UniProt Q0PNE2), for which the log2 fold change is inactive: -0.031.

As to ENO2 (UniProt P09104), the log2 fold change was inactive: 0.002.

EIF3E (UniProt P60228): the log2 fold change was inactive: 0.098.

Take EHHADH (UniProt Q08426): the log2 fold change was inactive: -0.007.

For the target EP300 (UniProt Q09472), the log2 fold change is inactive: -0.062.

As to EIF2D (UniProt P41214), the log2 fold change was inactive: 0.015.

In the case of EMP3 (UniProt P54852), the log2 fold change was inactive: 0.058.

For EFNB1 (UniProt P98172), the log2 fold change is inactive: 0.087.

Compound in another test: C1=CC=C2C(=C1)C3=NNC4=CC=CC(=C43)C2=O
Described as above. The essentials:
as §1
Turning to EMC7 (UniProt Q9NPA0), the log2 fold change was inactive: 0.006.

Consider EIF2S1 (UniProt P05198), for which the log2 fold change is inactive: 0.008.

With EIF3A (UniProt Q14152), the log2 fold change is inactive: 0.042.

As to EIF2B3 (UniProt Q9NR50), the log2 fold change was inactive: -0.014.

As to ENO3 (UniProt P13929), the log2 fold change was inactive: -0.026.

As for EIF3L (UniProt Q9Y262), the log2 fold change was inactive: 0.019.

Regarding EPB41 (UniProt P11171), the log2 fold change was inactive: -0.07.

For EIF2B2 (UniProt P49770), the log2 fold change was inactive: -0.046.

In the case of ENSA isoform 3 (UniProt O43768), the log2 fold change was inactive: 0.009.

With ELP2 isoform 6 (UniProt Q6IA86), the log2 fold change was inactive: -0.02.

Turning to EIF1AX (UniProt P47813), the log2 fold change is inactive: -0.002.

Take EMC6 (UniProt Q9BV81): the log2 fold change is inactive: -0.027.

Consider EIF4B (UniProt P23588), for which the log2 fold change is inactive: 0.069.

For EIF3H (UniProt O15372), the log2 fold change is inactive: -0.021.

Turning to EEFSEC (UniProt P57772), the log2 fold change was inactive: 0.028.

For the target ELP4 (UniProt Q96EB1), the log2 fold change was inactive: -0.063.

As for ELMOD2 (UniProt Q8IZ81), the log2 fold change was inactive: -0.045.

Consider EML3 isoform 2 (UniProt Q32P44), for which the log2 fold change was inactive: -0.055.

Regarding ELOB (UniProt Q15370), the log2 fold change is inactive: -0.027.

Regarding EEF2 (UniProt P13639), the log2 fold change was inactive: -0.026.

As to EI24 (UniProt O14681), the log2 fold change is inactive: 0.024.

On to EHMT2 (UniProt Q96KQ7), for which the log2 fold change is inactive: -0.086.

As to EIF1 (UniProt P41567), the log2 fold change was inactive: 0.001.

Take EIF3D (UniProt O15371): the log2 fold change was inactive: -0.008.

As for ENDOG (UniProt Q14249), the log2 fold change is inactive: 0.064.

Turning to EIF3G (UniProt O75821), the log2 fold change was inactive: 0.008.

With ELP6 (UniProt Q0PNE2), the log2 fold change is inactive: -0.013.

As for ENO2 (UniProt P09104), the log2 fold change was inactive: 0.006.

As to EIF3E (UniProt P60228), the log2 fold change was inactive: 0.006.

Turning to EHHADH (UniProt Q08426), the log2 fold change is inactive: 0.044.

For the target EP300 (UniProt Q09472), the log2 fold change was inactive: -0.026.

With EIF2D (UniProt P41214), the log2 fold change is inactive: 0.028.

With EMP3 (UniProt P54852), the log2 fold change was inactive: -0.055.

Regarding EFNB1 (UniProt P98172), the log2 fold change is inactive: -0.028.

Compound in a further test: C1CCN(C1)C(=O)NC2=CC=CC(=C2)NC3=NC=C(C(=N3)NCCC4=CN=CN4)Br
Described as above. The essentials:
as §1
Consider EMC7 (UniProt Q9NPA0), for which the log2 fold change is inactive: -0.007.

In the case of EIF2S1 (UniProt P05198), the log2 fold change is inactive: -0.026.

EIF3A (UniProt Q14152): the log2 fold change is inactive: -0.001.

For the target EIF2B3 (UniProt Q9NR50), the log2 fold change is inactive: 0.015.

With ENO3 (UniProt P13929), the log2 fold change is inactive: -0.058.

As to EIF3L (UniProt Q9Y262), the log2 fold change was inactive: -0.001.

Take EPB41 (UniProt P11171): the log2 fold change was inactive: 0.001.

As for EIF2B2 (UniProt P49770), the log2 fold change is inactive: -0.006.

Take ENSA isoform 3 (UniProt O43768): the log2 fold change is inactive: 0.056.

Take ELP2 isoform 6 (UniProt Q6IA86): the log2 fold change is inactive: 0.002.

For the target EIF1AX (UniProt P47813), the log2 fold change was inactive: 0.018.

For EMC6 (UniProt Q9BV81), the log2 fold change was inactive: -0.092.

Consider EIF4B (UniProt P23588), for which the log2 fold change was inactive: 0.014.

On to EIF3H (UniProt O15372), for which the log2 fold change was inactive: 0.015.

Regarding EEFSEC (UniProt P57772), the log2 fold change is inactive: 0.025.

On to ELP4 (UniProt Q96EB1), for which the log2 fold change is inactive: -0.039.

In the case of ELMOD2 (UniProt Q8IZ81), the log2 fold change is inactive: -0.002.

For EML3 isoform 2 (UniProt Q32P44), the log2 fold change was inactive: 0.004.

Regarding ELOB (UniProt Q15370), the log2 fold change was inactive: 0.017.

Regarding EEF2 (UniProt P13639), the log2 fold change was inactive: -0.017.

As to EI24 (UniProt O14681), the log2 fold change was inactive: -0.071.

For EHMT2 (UniProt Q96KQ7), the log2 fold change is inactive: 0.074.

Turning to EIF1 (UniProt P41567), the log2 fold change is inactive: 0.049.

For the target EIF3D (UniProt O15371), the log2 fold change was inactive: -0.028.

Consider ENDOG (UniProt Q14249), for which the log2 fold change is inactive: 0.036.

In the case of EIF3G (UniProt O75821), the log2 fold change is inactive: -0.003.

Consider ELP6 (UniProt Q0PNE2), for which the log2 fold change was inactive: -0.034.

In the case of ENO2 (UniProt P09104), the log2 fold change is inactive: -0.032.

On to EIF3E (UniProt P60228), for which the log2 fold change is inactive: -0.013.

With EHHADH (UniProt Q08426), the log2 fold change was inactive: -0.012.

Consider EP300 (UniProt Q09472), for which the log2 fold change is inactive: -0.036.

For EIF2D (UniProt P41214), the log2 fold change is inactive: -0.048.

As to EMP3 (UniProt P54852), the log2 fold change was inactive: -0.041.

EFNB1 (UniProt P98172): the log2 fold change was inactive: -0.038.
